Data published in PubChem BioAssay AID248 (DTP/NCI, 2004).
The list shows only some results of the screen, not a fair sample: it gathers tests that were run many times, whatever their T/C, doses with no T/C, and many T/C values between a quarter and a half above the control. Further doses and runs are listed elsewhere. T/C is the treated group as % of the vehicle group. Some doses have a count of surviving animals in place of a T/C: the source files T/C as zero there, which appears to mark a toxic dose or a test without result, not a measured value. Some doses without a T/C left all or most animals alive at the check, yet need not have been tolerated: survival well below the control is almost never listed, so the zero probably covers shortened survival too. Survivors were counted at the toxicity check, usually on the fifth day, unless a day is given; later deaths do not show. Schedules are NCI's codes, taken here to give the interval after Q, in days (D) or hours (H), and the number of doses after X. Where survival is the endpoint, the PubChem record calls one and a half times the control and up active, and a quarter to a half above the control has no call in these data; cut-offs in other NCI protocols can differ. Some schedule codes hold Z or #, which are not explained here.

Tested on: L1210 leukemia ip in BDF1 mice, survival T/C
Assay: NCI In Vivo Anticancer Drug Screen. Data for tumor model L1210 Leukemia (intraperitoneal) in B6D2F1 (BDF1) mice
Conditions: T/C endpoint: mean survival time, higher T/C = longer survival; for T/C: schedule: Q01DX Z (ip), vehicle: methylcellulose (MC)
[1] = dose: 400.0 mg/kg/injection, schedule: Q04DX002 (ip), vehicle: saline with Tween-80

C1OC1C1CO1 (stereo unspecified)
survivor count (dose: 66.0 mg/kg/injection, schedule: Q01DX001 (ip), vehicle: saline): 1 of 4
survivor count (dose: 80.0 mg/kg/injection, schedule: Q01DX001 (ip), vehicle: saline): 0 of 4
survivor count (dose: 100.0 mg/kg/injection, schedule: Q01DX001 (ip), vehicle: saline): 0 of 4
survivor count (dose: 100.0 mg/kg/injection, schedule: Q04DX003 (ip), vehicle: saline): 0 of 6
survivor count (dose: 150.0 mg/kg/injection, schedule: Q01DX001 (ip), vehicle: saline): 0 of 4
survivor count (dose: 200.0 mg/kg/injection, schedule: Q04DX003 (ip), vehicle: saline): 0 of 6
survivor count (dose: 400.0 mg/kg/injection, schedule: Q04DX003 (ip), vehicle: saline): 0 of 6

N#Cc1ccc(N=S=O)cc1
survivor count [1]: 1 of 3

CC1(OC(=O)c2ccc([N+](=O)[O-])cc2)CC2CC1c1ccccc12 (stereo unspecified)
survivor count (dose: 100.0 mg/kg/injection, schedule: Q01DX001 (ip), vehicle: carboxymethylcellulose (CMC)): 4 of 4

CCN(CC)C(=O)C1CCC(CCc2c[nH]c3ccccc23)NC1 (stereo unspecified)
survivor count (dose: 200.0 mg/kg/injection, schedule: Q01DX001 (ip), vehicle: saline): 1 of 6
survivor count (dose: 400.0 mg/kg/injection, schedule: Q01DX001 (ip), vehicle: saline): 0 of 6

Cn1cnc([N+](=O)[O-])c1Sc1nc(N)nc2c1ncn2C1OC(CO)C(O)C1O (stereo unspecified)
T/C (dose: 2.2 mg/kg/injection): 142 % of control
T/C (dose: 3.3 mg/kg/injection): 148 % of control
T/C (dose: 5.0 mg/kg/injection): 148 % of control
T/C (dose: 7.5 mg/kg/injection): 135 % of control

CS(=O)(=O)Oc1ccccc1OS(C)(=O)=O
survivor count [1]: 0 of 3
